Among the data in the supplement of paper PMC6411743 are NP40-soluble protein abundance values, retold here.

The chains behind the UniProt entries cited, without tags or fusion partners. Where a name states a change or a piece, a line headed by the entry shows the natural chain unless it says otherwise.
UniProt Q13868, whole entry: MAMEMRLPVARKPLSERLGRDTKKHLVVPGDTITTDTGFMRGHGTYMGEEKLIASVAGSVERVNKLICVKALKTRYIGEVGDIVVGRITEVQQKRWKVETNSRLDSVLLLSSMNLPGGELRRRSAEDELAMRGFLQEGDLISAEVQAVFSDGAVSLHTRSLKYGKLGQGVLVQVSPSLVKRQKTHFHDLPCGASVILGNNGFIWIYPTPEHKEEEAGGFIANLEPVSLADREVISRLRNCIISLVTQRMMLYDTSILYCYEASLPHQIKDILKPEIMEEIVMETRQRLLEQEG
UniProt Q09328: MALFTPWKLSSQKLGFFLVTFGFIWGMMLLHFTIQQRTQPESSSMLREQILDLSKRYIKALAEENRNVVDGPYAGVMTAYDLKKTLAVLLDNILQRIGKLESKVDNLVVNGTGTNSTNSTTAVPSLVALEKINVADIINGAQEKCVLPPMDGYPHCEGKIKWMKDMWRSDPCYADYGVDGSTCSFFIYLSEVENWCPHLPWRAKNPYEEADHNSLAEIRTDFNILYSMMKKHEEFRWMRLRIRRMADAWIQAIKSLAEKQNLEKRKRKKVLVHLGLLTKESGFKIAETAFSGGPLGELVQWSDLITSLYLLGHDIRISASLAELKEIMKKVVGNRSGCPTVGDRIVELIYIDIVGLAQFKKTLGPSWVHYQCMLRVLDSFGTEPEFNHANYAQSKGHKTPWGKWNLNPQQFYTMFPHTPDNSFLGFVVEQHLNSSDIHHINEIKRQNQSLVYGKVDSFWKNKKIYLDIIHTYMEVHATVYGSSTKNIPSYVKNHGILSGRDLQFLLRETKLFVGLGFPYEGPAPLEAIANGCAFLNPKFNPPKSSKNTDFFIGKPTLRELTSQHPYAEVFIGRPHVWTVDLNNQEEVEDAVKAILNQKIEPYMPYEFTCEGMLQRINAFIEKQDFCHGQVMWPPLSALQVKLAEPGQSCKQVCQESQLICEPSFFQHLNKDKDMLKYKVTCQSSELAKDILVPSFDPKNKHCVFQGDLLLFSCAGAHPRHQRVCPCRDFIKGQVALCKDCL
UniProt Q12770: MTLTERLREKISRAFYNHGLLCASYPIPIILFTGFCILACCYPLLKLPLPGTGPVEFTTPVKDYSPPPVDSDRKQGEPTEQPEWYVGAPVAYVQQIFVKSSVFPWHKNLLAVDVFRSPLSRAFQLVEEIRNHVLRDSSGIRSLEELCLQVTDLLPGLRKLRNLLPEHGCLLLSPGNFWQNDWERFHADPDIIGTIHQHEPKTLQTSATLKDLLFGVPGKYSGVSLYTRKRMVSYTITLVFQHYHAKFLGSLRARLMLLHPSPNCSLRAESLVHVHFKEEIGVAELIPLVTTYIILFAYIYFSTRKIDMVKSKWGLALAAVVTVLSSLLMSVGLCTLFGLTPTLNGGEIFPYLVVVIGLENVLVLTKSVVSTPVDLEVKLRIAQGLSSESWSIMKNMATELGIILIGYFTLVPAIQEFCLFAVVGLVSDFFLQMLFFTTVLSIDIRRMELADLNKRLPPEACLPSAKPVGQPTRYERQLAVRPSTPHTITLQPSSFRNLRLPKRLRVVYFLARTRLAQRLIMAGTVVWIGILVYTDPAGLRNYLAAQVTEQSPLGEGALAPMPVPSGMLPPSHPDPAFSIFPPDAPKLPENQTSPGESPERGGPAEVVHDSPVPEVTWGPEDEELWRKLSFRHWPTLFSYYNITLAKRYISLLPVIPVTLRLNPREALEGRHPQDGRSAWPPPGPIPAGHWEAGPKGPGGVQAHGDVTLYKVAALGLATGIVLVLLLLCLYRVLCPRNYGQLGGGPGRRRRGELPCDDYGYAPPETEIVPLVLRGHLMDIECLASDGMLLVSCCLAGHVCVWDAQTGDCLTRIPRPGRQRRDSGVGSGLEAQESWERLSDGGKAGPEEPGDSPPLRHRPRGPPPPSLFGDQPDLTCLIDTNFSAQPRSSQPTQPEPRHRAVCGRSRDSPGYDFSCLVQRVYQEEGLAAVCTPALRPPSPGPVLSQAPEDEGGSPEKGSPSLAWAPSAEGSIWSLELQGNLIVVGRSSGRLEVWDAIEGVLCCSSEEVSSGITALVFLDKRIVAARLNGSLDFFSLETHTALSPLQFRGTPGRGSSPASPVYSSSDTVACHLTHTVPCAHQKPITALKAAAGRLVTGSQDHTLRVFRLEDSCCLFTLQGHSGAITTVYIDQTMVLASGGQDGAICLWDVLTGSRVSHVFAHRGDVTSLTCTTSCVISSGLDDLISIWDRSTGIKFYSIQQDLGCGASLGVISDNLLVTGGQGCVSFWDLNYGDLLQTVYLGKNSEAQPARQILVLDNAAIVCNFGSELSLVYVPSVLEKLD
UniProt Q14320: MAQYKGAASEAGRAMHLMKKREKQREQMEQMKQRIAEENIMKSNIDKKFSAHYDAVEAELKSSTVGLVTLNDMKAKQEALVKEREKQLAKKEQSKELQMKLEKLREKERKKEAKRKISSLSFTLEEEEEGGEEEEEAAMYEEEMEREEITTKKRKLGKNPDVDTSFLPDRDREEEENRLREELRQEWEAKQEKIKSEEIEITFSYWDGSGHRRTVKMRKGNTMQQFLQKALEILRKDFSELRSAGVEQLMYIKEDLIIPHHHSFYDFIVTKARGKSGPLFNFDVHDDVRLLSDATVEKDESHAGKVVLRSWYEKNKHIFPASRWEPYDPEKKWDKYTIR
UniProt Q14687: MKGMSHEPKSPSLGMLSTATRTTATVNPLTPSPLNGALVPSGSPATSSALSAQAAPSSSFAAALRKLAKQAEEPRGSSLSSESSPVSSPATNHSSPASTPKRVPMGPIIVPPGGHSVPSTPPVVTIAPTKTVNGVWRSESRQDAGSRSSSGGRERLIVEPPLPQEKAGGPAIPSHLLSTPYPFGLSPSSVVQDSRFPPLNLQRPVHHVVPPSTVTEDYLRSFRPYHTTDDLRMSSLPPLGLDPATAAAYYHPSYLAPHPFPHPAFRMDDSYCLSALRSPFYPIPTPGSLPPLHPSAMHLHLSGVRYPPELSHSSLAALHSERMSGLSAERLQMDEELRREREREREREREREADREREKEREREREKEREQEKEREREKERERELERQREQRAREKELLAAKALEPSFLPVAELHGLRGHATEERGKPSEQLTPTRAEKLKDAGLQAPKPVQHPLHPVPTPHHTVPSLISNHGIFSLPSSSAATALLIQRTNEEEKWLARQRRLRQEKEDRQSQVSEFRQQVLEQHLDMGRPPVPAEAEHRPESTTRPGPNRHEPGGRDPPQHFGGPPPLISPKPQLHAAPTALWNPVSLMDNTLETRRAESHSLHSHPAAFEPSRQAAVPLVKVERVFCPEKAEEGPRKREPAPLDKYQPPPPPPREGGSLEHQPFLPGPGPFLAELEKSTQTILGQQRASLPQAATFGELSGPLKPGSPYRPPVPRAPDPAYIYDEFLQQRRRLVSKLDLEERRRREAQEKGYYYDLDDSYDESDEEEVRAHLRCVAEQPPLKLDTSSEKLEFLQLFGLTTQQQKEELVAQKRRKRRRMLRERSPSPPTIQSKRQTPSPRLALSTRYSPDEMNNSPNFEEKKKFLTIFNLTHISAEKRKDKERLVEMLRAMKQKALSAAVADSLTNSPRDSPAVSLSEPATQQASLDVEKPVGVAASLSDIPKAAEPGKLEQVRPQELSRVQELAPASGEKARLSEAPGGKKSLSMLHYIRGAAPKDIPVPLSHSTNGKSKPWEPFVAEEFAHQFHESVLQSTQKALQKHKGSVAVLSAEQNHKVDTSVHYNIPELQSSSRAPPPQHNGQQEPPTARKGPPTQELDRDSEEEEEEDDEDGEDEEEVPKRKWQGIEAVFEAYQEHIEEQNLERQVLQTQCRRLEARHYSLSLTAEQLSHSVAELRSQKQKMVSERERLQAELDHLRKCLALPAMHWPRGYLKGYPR
UniProt Q10469: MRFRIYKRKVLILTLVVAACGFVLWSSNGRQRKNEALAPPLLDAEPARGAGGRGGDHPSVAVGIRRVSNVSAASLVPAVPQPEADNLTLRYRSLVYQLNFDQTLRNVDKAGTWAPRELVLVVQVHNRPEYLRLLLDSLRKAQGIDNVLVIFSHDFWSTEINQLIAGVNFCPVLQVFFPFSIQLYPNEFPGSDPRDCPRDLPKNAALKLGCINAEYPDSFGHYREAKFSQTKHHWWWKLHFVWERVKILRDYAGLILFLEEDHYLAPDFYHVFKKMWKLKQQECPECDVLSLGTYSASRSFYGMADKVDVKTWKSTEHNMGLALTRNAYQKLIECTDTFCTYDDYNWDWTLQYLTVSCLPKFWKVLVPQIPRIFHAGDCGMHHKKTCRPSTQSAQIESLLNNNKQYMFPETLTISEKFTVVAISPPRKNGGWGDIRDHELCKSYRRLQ
UniProt Q14694, whole entry: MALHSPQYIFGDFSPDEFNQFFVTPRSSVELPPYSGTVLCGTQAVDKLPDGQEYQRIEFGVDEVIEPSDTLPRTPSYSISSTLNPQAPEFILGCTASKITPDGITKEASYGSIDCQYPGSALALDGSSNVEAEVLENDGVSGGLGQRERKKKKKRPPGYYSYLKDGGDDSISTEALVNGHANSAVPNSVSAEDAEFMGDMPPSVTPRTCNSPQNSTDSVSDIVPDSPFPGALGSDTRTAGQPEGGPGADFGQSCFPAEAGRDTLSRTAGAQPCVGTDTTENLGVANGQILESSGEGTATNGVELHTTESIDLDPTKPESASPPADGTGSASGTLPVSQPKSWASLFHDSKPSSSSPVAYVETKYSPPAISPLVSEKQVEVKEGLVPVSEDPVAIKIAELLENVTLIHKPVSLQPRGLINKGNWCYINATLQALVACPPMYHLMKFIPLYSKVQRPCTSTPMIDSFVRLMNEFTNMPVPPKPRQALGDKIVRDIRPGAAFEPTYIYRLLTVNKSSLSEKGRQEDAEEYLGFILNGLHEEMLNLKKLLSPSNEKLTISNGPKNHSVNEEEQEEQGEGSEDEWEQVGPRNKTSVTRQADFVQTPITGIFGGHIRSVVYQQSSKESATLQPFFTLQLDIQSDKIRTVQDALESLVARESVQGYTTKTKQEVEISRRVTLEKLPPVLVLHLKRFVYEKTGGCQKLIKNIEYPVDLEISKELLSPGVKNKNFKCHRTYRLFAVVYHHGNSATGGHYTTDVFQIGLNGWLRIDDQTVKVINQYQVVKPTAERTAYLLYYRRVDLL
UniProt Q13049: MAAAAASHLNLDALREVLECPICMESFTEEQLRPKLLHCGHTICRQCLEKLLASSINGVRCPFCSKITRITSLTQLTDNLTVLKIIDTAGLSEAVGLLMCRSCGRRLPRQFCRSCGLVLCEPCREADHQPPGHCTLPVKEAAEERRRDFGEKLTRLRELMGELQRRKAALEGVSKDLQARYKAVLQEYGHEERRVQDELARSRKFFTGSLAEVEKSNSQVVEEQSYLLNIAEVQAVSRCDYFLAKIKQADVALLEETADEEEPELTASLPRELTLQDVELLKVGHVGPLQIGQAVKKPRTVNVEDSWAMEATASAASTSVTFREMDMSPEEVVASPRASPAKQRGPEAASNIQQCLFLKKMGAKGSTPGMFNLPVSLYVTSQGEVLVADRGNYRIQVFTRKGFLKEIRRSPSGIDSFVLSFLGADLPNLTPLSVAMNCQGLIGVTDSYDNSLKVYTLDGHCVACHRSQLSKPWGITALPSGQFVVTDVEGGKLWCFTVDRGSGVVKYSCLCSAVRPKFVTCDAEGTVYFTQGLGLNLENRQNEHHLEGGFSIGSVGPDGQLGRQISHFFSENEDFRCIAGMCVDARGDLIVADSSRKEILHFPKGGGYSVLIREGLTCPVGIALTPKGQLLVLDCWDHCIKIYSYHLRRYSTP
UniProt Q13162: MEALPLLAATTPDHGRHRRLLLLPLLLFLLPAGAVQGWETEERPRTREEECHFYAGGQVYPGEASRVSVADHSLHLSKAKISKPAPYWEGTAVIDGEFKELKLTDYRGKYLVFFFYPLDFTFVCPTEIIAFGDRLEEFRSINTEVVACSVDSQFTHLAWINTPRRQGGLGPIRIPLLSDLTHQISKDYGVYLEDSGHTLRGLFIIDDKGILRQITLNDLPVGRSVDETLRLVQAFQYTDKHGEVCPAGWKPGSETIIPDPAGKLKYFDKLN
UniProt Q14781, whole entry: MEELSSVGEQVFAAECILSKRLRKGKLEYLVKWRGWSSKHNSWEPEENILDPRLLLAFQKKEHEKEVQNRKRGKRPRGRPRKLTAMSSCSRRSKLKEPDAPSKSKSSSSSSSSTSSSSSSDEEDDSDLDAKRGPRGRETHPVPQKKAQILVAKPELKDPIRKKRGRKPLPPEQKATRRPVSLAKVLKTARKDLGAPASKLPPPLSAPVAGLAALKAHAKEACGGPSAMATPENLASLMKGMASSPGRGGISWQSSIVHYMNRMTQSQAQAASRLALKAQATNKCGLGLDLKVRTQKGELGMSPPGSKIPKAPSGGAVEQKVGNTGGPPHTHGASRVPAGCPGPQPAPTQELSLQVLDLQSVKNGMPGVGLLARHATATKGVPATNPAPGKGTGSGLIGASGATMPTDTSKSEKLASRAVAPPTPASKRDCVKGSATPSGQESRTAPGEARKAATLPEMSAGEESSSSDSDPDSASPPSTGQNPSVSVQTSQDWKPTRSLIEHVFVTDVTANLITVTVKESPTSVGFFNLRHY

± gives the standard deviation of the averaged measurements. This is a selection; strong and weak results do not stand in their true shares. Most values lie at the level of the controls, where differences are scatter.

Compound in this assay: Nc1ncnc2c1ncn2[C@@H]1O[C@H](COP(=O)(O)OP(=O)(O)NP(=O)(O)O)[C@@H](O)[C@H]1O [adenylyl imidodiphosphate]
Put plainly: NP40-soluble protein abundance relative to vehicle (solubility fold change) (ratio); higher = more soluble protein in presence of AMP-PNP. Put shortly: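 Eight concentrations, 0.1 to 10 mM, were tested on Jurkat crude lysate for 10 min at room temperature and then 3 min at 37 °C, in three independent experiments. The lysate was solubilised with 0.8% NP40 and benzonase, ultracentrifuged, and the supernatant TMT-labelled for LC-MS/MS. Each value is the fold change against the detergent-processed vehicle in its own replicate, from vsn-normalised intensities.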

Consider UniProt Q15046, for which the NP40-soluble protein abundance reads like this: (concentration: 0.1mM) 1 ± 0.052; (concentration: 0.5mM) 0.976 ± 0.076.

For EXOSC2 (UniProt Q13868), the NP40-soluble protein abundance is, setting by setting: (concentration: 0.1mM) 1.02 ± 0.025; (concentration: 0.5mM) 1.04 ± 0.077.

Turning to PDIA5 (UniProt Q14554), the NP40-soluble protein abundance (concentration: 0.1mM) was determined as 0.9817 ± 0.0091 and the NP40-soluble protein abundance (concentration: 0.5mM) was 0.99 ± 0.029.

Regarding UniProt Q15036 and related entries, the NP40-soluble protein abundance is, setting by setting: (concentration: 0.1mM) 1.012 ± 0.0058; (concentration: 0.5mM) 1.05 ± 0.033.

For UniProt Q15020 and related entries, the NP40-soluble protein abundance turned out to be 1.01 ± 0.022 (concentration: 0.1mM) and 1.01 ± 0.02 (concentration: 0.5mM).

For the target ARHGEF6 (UniProt Q15052), the NP40-soluble protein abundance (concentration: 0.1mM) was found to be 0.991 ± 0.011 and the NP40-soluble protein abundance (concentration: 0.5mM) came out at 0.9996 ± 0.0073.

For the target SCARB2 (UniProt Q14108), the NP40-soluble protein abundance turned out to be 1 ± 0.027 (concentration: 0.1mM) and 0.996 ± 0.039 (concentration: 0.5mM).

On to MGAT5 (UniProt Q09328), for which the NP40-soluble protein abundance was found to be 0.994 ± 0.035 (concentration: 0.1mM) and 0.976 ± 0.021 (concentration: 0.5mM).

For the target UniProt Q13825 and related entries, the NP40-soluble protein abundance (concentration: 0.1mM) stood at 0.986 ± 0.025 and the NP40-soluble protein abundance (concentration: 0.5mM) is 1 ± 0.034.

For the target UniProt Q14562, the NP40-soluble protein abundance is, setting by setting: (concentration: 0.1mM) 1.04 ± 0.037; (concentration: 0.5mM) 0.994 ± 0.049.

For PDAP1 (UniProt Q13442), the NP40-soluble protein abundance was 0.972 ± 0.058 (concentration: 0.1mM) and 1.08 ± 0.13 (concentration: 0.5mM).

As to IQGAP2 (UniProt Q13576), the NP40-soluble protein abundance came out at 0.967 ± 0.041 (concentration: 0.1mM) and 0.968 ± 0.059 (concentration: 0.5mM).

With UniProt Q14558-2|Q14558, the NP40-soluble protein abundance by setting is: (concentration: 0.1mM) 0.969 ± 0.048; (concentration: 0.5mM) 0.884 ± 0.076.

As to UniProt Q14005 and related entries, the NP40-soluble protein abundance is, setting by setting: (concentration: 0.1mM) 0.997 ± 0.033; (concentration: 0.5mM) 0.973 ± 0.017.

For EIF2B1 (UniProt Q14232), the NP40-soluble protein abundance reads like this: (concentration: 0.1mM) 0.998 ± 0.032; (concentration: 0.5mM) 1.04 ± 0.044.

UniProt Q12797 and related entries: the NP40-soluble protein abundance was 0.98 ± 0.059 (concentration: 0.1mM) and 0.976 ± 0.045 (concentration: 0.5mM).

In the case of WTAP (UniProt Q15007), the NP40-soluble protein abundance reads like this: (concentration: 0.1mM) 1 ± 0.024; (concentration: 0.5mM) 1.06 ± 0.068.

As for EXOSC7 (UniProt Q15024), the NP40-soluble protein abundance by setting is: (concentration: 0.1mM) 1.02 ± 0.017; (concentration: 0.5mM) 0.991 ± 0.084.

With SREBF2 (UniProt Q12772), the NP40-soluble protein abundance is, setting by setting: (concentration: 0.1mM) 1.01 ± 0.018; (concentration: 0.5mM) 1.02 ± 0.025.

Take UniProt Q12933 and related entries: the NP40-soluble protein abundance by setting is: (concentration: 0.1mM) 0.968 ± 0.014; (concentration: 0.5mM) 0.961 ± 0.026.

For MDC1 (UniProt Q14676), the NP40-soluble protein abundance is, setting by setting: (concentration: 0.1mM) 0.9902 ± 0.0073; (concentration: 0.5mM) 1.05 ± 0.032.

Regarding UniProt Q12824, the NP40-soluble protein abundance reads like this: (concentration: 0.1mM) 1.02 ± 0.076; (concentration: 0.5mM) 0.963 ± 0.071.

Consider G3BP1 (UniProt Q13283), for which the NP40-soluble protein abundance reads like this: (concentration: 0.1mM) 1.03 ± 0.011; (concentration: 0.5mM) 1.066 ± 0.0018.

For the target UniProt Q14142 and related entries, the NP40-soluble protein abundance is 0.984 ± 0.017 (concentration: 0.1mM) and 0.9776 ± 0.0068 (concentration: 0.5mM).

On to UniProt Q12770 and related entries, for which the NP40-soluble protein abundance came to 1.001 ± 0.0061 (concentration: 0.1mM) and 0.998 ± 0.012 (concentration: 0.5mM).

For the target ACAP1 (UniProt Q15027), the NP40-soluble protein abundance (concentration: 0.1mM) amounted to 1.02 ± 0.036 and the NP40-soluble protein abundance (concentration: 0.5mM) worked out at 1.01 ± 0.068.

Take FAM50A (UniProt Q14320): the NP40-soluble protein abundance by setting is: (concentration: 0.1mM) 0.98 ± 0.043; (concentration: 0.5mM) 0.995 ± 0.03.

For UniProt Q13033-2, the NP40-soluble protein abundance (concentration: 0.1mM) was found to be 0.9796 ± 0.005 and the NP40-soluble protein abundance (concentration: 0.5mM) turned out to be 0.998 ± 0.058.

For GRAP (UniProt Q13588), the NP40-soluble protein abundance is 1.01 ± 0.034 (concentration: 0.1mM) and 0.971 ± 0.053 (concentration: 0.5mM).

On to UniProt Q14687 and related entries, for which the NP40-soluble protein abundance runs as follows: (concentration: 0.1mM) 1.03 ± 0.073; (concentration: 0.5mM) 1.02 ± 0.076.

Regarding MGAT2 (UniProt Q10469), the NP40-soluble protein abundance reads like this: (concentration: 0.1mM) 1 ± 0.014; (concentration: 0.5mM) 0.987 ± 0.025.

With BLMH (UniProt Q13867), the NP40-soluble protein abundance is, setting by setting: (concentration: 0.1mM) 1.08 ± 0.086; (concentration: 0.5mM) 0.981 ± 0.14.

With UniProt Q14694 and related entries, the NP40-soluble protein abundance stood at 1.02 ± 0.014 (concentration: 0.1mM) and 1.02 ± 0.053 (concentration: 0.5mM).

In the case of PDCD11 (UniProt Q14690), the NP40-soluble protein abundance (concentration: 0.1mM) was found to be 1.033 ± 0.0036 and the NP40-soluble protein abundance (concentration: 0.5mM) turned out to be 1 ± 0.011.

IK (UniProt Q13123): the NP40-soluble protein abundance is, setting by setting: (concentration: 0.1mM) 0.999 ± 0.026; (concentration: 0.5mM) 1.03 ± 0.049.

Turning to UniProt Q13332 and related entries, the NP40-soluble protein abundance by setting is: (concentration: 0.1mM) 0.998 ± 0.019; (concentration: 0.5mM) 0.99 ± 0.028.

For CBX3 (UniProt Q13185), the NP40-soluble protein abundance was 0.978 ± 0.058 (concentration: 0.1mM) and 0.977 ± 0.011 (concentration: 0.5mM).

In the case of NFX1 (UniProt Q12986), the NP40-soluble protein abundance is 0.99 ± 0.036 (concentration: 0.1mM) and 1 ± 0.022 (concentration: 0.5mM).

As for UniProt Q12800 and related entries, the NP40-soluble protein abundance (concentration: 0.1mM) turned out to be 1.01 ± 0.022 and the NP40-soluble protein abundance (concentration: 0.5mM) is 0.953 ± 0.031.

On to GALNT2 (UniProt Q10471), for which the NP40-soluble protein abundance is 0.988 ± 0.029 (concentration: 0.1mM) and 0.985 ± 0.032 (concentration: 0.5mM).

As to HSPA14 (UniProt Q0VDF9), the NP40-soluble protein abundance runs as follows: (concentration: 0.1mM) 1.01 ± 0.059; (concentration: 0.5mM) 0.999 ± 0.046.

With EIF3I (UniProt Q13347), the NP40-soluble protein abundance (concentration: 0.1mM) was 0.996 ± 0.015 and the NP40-soluble protein abundance (concentration: 0.5mM) turned out to be 1.01 ± 0.028.

For the target UNC119 (UniProt Q13432), the NP40-soluble protein abundance by setting is: (concentration: 0.1mM) 0.979 ± 0.016; (concentration: 0.5mM) 1.01 ± 0.042.

On to UniProt Q13618 and related entries, for which the NP40-soluble protein abundance is, setting by setting: (concentration: 0.1mM) 1.01 ± 0.017; (concentration: 0.5mM) 0.982 ± 0.057.

Take LBR (UniProt Q14739): the NP40-soluble protein abundance is, setting by setting: (concentration: 0.1mM) 1.01 ± 0.03; (concentration: 0.5mM) 1.01 ± 0.028.

Take EIF2B5 (UniProt Q13144): the NP40-soluble protein abundance is 1 ± 0.021 (concentration: 0.1mM) and 0.9802 ± 0.0087 (concentration: 0.5mM).

As for PPP2R5D (UniProt Q14738), the NP40-soluble protein abundance is, setting by setting: (concentration: 0.1mM) 0.976 ± 0.022; (concentration: 0.5mM) 0.998 ± 0.02.

On to UniProt Q13501 and related entries, for which the NP40-soluble protein abundance (concentration: 0.1mM) was found to be 1.01 ± 0.051 and the NP40-soluble protein abundance (concentration: 0.5mM) is 1.02 ± 0.037.

Consider IFIT5 (UniProt Q13325), for which the NP40-soluble protein abundance is, setting by setting: (concentration: 0.1mM) 0.97 ± 0.06; (concentration: 0.5mM) 0.995 ± 0.017.

Turning to UniProt Q14103-3|Q14103-4|D6RF44, the NP40-soluble protein abundance reads like this: (concentration: 0.1mM) 0.983 ± 0.04; (concentration: 0.5mM) 1.05 ± 0.064.

With SCRN1 (UniProt Q12765), the NP40-soluble protein abundance by setting is: (concentration: 0.1mM) 0.997 ± 0.011; (concentration: 0.5mM) 0.99 ± 0.023.

Take “UniProt Q13428-3|Q13428-7|E7ETY2 and related entries”: the NP40-soluble protein abundance runs as follows: (concentration: 0.1mM) 1 ± 0.022; (concentration: 0.5mM) 1.06 ± 0.096.

Consider TRIM32 (UniProt Q13049), for which the NP40-soluble protein abundance by setting is: (concentration: 0.1mM) 1 ± 0.014; (concentration: 0.5mM) 1.03 ± 0.03.

As for UniProt Q15025 and related entries, the NP40-soluble protein abundance runs as follows: (concentration: 0.1mM) 0.9718 ± 0.0088; (concentration: 0.5mM) 0.992 ± 0.053.

In the case of BMS1 (UniProt Q14692), the NP40-soluble protein abundance amounted to 1.03 ± 0.039 (concentration: 0.1mM) and 1.03 ± 0.034 (concentration: 0.5mM).

Take UniProt Q14197 and related entries: the NP40-soluble protein abundance by setting is: (concentration: 0.1mM) 1.06 ± 0.064; (concentration: 0.5mM) 0.993 ± 0.065.

As to PRDX4 (UniProt Q13162), the NP40-soluble protein abundance was determined as 0.995 ± 0.031 (concentration: 0.1mM) and 0.998 ± 0.092 (concentration: 0.5mM).

Consider CBX2 (UniProt Q14781), for which the NP40-soluble protein abundance (concentration: 0.1mM) stood at 0.991 ± 0.038 and the NP40-soluble protein abundance (concentration: 0.5mM) is 1.01 ± 0.015.

SSRP1 (UniProt Q08945): the NP40-soluble protein abundance was 1 ± 0.054 (concentration: 0.1mM) and 1.07 ± 0.041 (concentration: 0.5mM).

As for TUBB3 (UniProt Q13509), the NP40-soluble protein abundance runs as follows: (concentration: 0.1mM) 0.992 ± 0.015; (concentration: 0.5mM) 1.01 ± 0.08.
